From doi:10.1101/2021.10.18.464838
No constants are given. Whether binding was seen depends on the method and setting. Some results given as binding are weak or reduced against the parent protein; the word gives no strength.

Protein sequences, listed by entry. Tags and fused reporters are not part of them. Lines headed by an entry give the natural chain unless they say otherwise; changes in a name come on top.
UniProt Q9UDY4: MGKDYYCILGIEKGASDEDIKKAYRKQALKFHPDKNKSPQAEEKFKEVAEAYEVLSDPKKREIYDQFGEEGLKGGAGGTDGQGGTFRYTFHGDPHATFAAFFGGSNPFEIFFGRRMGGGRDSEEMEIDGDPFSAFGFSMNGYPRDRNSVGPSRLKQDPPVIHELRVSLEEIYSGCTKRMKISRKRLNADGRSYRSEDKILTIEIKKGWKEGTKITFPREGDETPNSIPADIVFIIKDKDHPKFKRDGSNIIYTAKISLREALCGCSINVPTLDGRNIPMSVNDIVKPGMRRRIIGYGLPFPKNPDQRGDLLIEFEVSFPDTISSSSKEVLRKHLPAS
UniProt P0DMV8: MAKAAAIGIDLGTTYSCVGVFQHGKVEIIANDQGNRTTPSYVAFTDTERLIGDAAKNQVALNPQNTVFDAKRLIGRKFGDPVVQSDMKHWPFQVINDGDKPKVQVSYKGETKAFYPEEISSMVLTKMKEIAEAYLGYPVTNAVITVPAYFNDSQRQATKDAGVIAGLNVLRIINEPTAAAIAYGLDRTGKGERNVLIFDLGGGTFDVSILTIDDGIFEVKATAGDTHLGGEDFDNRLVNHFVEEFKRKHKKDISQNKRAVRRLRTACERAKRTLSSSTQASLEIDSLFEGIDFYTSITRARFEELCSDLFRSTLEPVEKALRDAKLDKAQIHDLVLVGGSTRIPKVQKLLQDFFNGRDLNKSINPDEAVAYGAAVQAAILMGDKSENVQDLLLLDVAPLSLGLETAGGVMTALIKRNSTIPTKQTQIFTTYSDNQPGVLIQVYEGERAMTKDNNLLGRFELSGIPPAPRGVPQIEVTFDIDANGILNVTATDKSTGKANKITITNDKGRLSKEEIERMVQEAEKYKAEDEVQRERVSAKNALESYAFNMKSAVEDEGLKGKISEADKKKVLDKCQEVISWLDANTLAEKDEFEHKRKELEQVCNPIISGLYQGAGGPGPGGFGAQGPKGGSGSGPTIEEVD

Target: DnaJB4 (recombinant, human, full length, wild type) (human) (UniProt Q9UDY4)
Test: fluorescence polarisation

Row | binding | Substance
1 | binds | Hsp72 C-terminal peptide truncated by P10 (9-mer) (from UniProt P0DMV8 633-641)
2 | binds | Hsp72 C-terminal peptide truncated by P10 and P9 (8-mer) (from UniProt P0DMV8 634-641)
